# Results of single-concentration screens

Amino acid sequences for entries named in this document (tags omitted). Residues count along the entry.
UniProt Q8IDJ8, 1-583: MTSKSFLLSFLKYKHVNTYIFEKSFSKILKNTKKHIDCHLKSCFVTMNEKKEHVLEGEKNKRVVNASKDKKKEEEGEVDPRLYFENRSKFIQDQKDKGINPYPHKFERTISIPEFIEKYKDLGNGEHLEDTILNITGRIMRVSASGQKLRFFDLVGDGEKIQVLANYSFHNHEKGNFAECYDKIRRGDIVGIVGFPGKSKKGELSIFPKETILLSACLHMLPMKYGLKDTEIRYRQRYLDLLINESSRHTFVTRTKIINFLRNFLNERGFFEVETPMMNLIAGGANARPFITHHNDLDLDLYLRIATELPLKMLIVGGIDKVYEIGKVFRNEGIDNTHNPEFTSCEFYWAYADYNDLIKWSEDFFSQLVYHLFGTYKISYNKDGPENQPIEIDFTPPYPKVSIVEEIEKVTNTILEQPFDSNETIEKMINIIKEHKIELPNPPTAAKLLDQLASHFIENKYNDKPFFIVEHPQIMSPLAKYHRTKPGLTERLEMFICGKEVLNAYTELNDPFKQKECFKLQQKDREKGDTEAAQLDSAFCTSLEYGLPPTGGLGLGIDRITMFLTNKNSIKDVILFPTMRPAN
UniProt P9WFT3, whole entry: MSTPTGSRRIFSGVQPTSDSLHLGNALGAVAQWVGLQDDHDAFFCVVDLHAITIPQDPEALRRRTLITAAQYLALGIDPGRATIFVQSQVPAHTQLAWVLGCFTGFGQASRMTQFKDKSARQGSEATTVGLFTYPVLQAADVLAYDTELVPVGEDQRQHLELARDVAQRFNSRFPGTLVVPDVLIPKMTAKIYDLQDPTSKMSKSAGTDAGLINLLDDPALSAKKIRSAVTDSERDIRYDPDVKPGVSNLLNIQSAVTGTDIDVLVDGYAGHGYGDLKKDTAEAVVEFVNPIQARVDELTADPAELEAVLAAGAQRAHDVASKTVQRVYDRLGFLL
UniProt P9WPC5, whole entry: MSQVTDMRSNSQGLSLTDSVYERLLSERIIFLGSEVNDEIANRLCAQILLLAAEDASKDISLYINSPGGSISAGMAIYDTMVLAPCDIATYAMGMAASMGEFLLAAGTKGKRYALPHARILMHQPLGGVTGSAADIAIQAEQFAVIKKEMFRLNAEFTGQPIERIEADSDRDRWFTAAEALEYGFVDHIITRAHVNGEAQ
UniProt P9WPC3, whole entry partner: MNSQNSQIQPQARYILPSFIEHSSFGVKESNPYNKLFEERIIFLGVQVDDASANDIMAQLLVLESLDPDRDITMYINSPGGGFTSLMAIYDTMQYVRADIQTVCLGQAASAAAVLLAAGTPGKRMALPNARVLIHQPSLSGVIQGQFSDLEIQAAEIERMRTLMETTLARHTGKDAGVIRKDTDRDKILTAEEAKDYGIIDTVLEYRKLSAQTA

Source: ChEMBL document CHEMBL3988442, “University of Dundee, Small-Polar-MMV Screening Library” (2021).

A: 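Enzyme assay of the cytosolic lysyl-tRNA synthetase in 384-well plates, read by luminescence. Target: Lysine-tRNA ligase, Plasmodium falciparum 3D7 (UniProt Q8IDJ8). Tested at 30 µM. Direction is inferred from only a few compounds that gave an IC50; most scored high, so higher reads as stronger inhibition. About 69,000 compounds were tested under these conditions; 0.071% (about 49) showed 50% or more at least once.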
B: 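Tryptophan-tRNA ligase, Mycobacterium tuberculosis (UniProt P9WFT3). Enzyme assay of tryptophanyl-tRNA synthetase; the read-out is not stated. Tested at 10 µM. Direction is not recorded; retested compounds ran higher, which suggests that high means inhibition. About 65,000 compounds were tested under these conditions; 0.098% (about 64) showed 50% or more at least once.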
C: 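ClpP1P2, Mycobacterium tuberculosis (UniProt P9WPC5 and UniProt P9WPC3). Protease assay of ClpP1P2, read by the AMC dye that it sets free. Tested at 50 µM. Direction is inferred from only a few compounds that gave an IC50; most scored high, so higher reads as stronger inhibition. Most other retested compounds had strongly negative values. About 69,000 compounds were tested under these conditions; 0.015% (about 10) showed 50% or more at least once.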

Results are given as percent effect. The controls that fix the scale are not given in the record; negative values are as filed. Compounds were drawn at random from those tested, without regard to their results.

* CC(O)(CNC(=O)c1cccnc1-n1cccn1)c1ccco1 (stereo not given) | A: 2.129%; B: -0.7199%; C: -3.799%
* Cc1ccc(CN2CCC3(CC2)CC(CC(=O)NC(C)C)CO3)s1 (stereo not given) | A: 4.753%; B: -3.151%; C: 11.82%
* Cc1ccc(CN2CCC3(CC2)C(=O)Nc2ccccc23)s1 | A: 1.265%; B: -4.942%; C: 3.67%
* COc1cc2nc3n(c(=O)c2cc1OC)CCN(C(=O)C(C)(C)C)CC3 | A: 2.935%; C: -6.044%
* CS(=O)(=O)N1CCCC(n2nnn(-c3ccccc3)c2=O)C1 (stereo not given) | A: -0.9681%; B: -4.688%; C: -5.813%
* c1cnn(C2CN(c3nc(-c4ccncc4)nc4c3CCC4)C2)c1 | A: 3.686%; B: 0.2179%; C: -7.85%
* CCOC(=O)N1CCN(c2nc(CCN)nc3sc(C)c(C)c23)CC1 | A: 6.753%; B: -9.213%; C: 3.362%
* COc1cc(OC)cc(N2CCC(NCc3cc[nH]n3)C2)c1 (stereo not given) | A: 3.047%; B: 4.959%; C: -3.522%
* COc1cc(C2SC(C)=Nc3c2c(=O)[nH]n3C2CCCC2)ccc1O (stereo not given) | A: -0.5975%; B: -1.555%; C: -6.925%
* CC(C#N)CNC(=O)Nc1ccc(-c2ccc[nH]2)cc1 (stereo not given) | A: -0.4924%; B: 2.321%; C: -1.237%
* CCc1nccn1-c1cccc(C2CCCN2S(=O)(=O)N(C)C)n1 (stereo not given) | A: 3.857%; C: -9.331%
* C[S+]([O-])c1nncn1CC(=O)c1ccc(Br)cc1 (stereo not given) | A: 3.793%; B: -4.485%; C: -1.912%
* COCC1c2nnn(CC3CC3)c2CCN1C(=O)C1CCOCC1 (stereo not given) | A: -0.2214%; B: -0.7647%; C: -0.04781%
* COCCn1ccc2c(cnc3nc(SC)nn32)c1=O | A: 2.114%; B: -0.8223%; C: -16.38%
* Cc1nc(C(=O)N(C)CC2CCCO2)nn1-c1ccccc1C(C)C (stereo not given) | A: 1.777%; B: 0.7897%; C: -13.93%
* CS(=O)(=O)N1CCC(C(=O)N2CCN(Cc3cccc(Cl)c3)CC2)CC1 | A: 10.34%; B: 3.631%; C: 6.962%
* Cc1ccc(CN2CCOC3(COCCN(S(C)(=O)=O)C3)C2)o1 (stereo not given) | A: 5.746%; B: 0.3814%; C: -1.348%
* O=C(O)c1nc(SCc2ccccc2)ncc1Br | A: 4.474%; B: -2.087%; C: -16.9%
* COC(=O)C1(NCc2nc(C)c(C)o2)CCC(C)CC1 (stereo not given) | A: 0.8478%; B: -2.794%; C: -3.274%
* Cn1cc(C(=O)N2CC[C@@H]3[C@@H]2CCN3Cc2cccc(F)c2)cn1 | A: -0.8266%; B: 4.272%; C: -3.196%
* CNC(=O)c1ccc(NC2CCN(CC(F)(F)F)C2=O)cc1Cl (stereo not given) | A: 5.575%; B: -2.559%; C: -5.678%
* CC(OCC(F)(F)F)C(=O)N1CCN(S(C)(=O)=O)CC1 (stereo not given) | A: 6.387%; B: -2.21%; C: 9.095%
* Cc1cnn(CC2CCCCN2C(=O)c2ccc3[nH]c(=O)[nH]c3c2)c1 (stereo not given) | A: 0.1626%; B: -3.887%; C: -19.61%
* COc1cccc(NC(=O)c2cc3c([nH]c2=O)CCCC3=O)c1 | A: 1.075%; B: -1.55%; C: 0.4536%
* CCC1COCCN1C(=O)CNC(=O)c1ccsc1 (stereo not given) | A: 1.074%; B: 2.621%; C: -3.007%
* O=C1CC(N(C(=O)COc2ccc(F)cc2F)C2CC2)C(=O)N1 (stereo not given) | A: 4.474%; B: 1.762%; C: 10.24%
* O=C1CN(C(=O)CC2c3ccccc3CCc3ccccc32)CCN1 | A: -4.024%; B: -3.065%; C: -13.06%
* NC(=O)C1(CNC(=O)CCc2ccc(Cl)s2)CCOCC1 | A: 6.383%; B: 2.089%; C: 9.98%
* CCC(O)CN1CCN(C(=O)Cc2cc(C)ccc2OC)CC1 (stereo not given) | A: 1.688%; B: 6.417%; C: -15.14%
* O=C(c1cnc2ccccc2c1)N1CCCC(O)(CN2CCCC2)C1 (stereo not given) | A: -2.667%; B: -3.818%; C: 4.518%

The last 4 entries again:

For O=C1CN(C(=O)CC2c3ccccc3CCc3ccccc32)CCN1 the result was A: -4.024%; B: -3.065%; C: -13.06%.
For NC(=O)C1(CNC(=O)CCc2ccc(Cl)s2)CCOCC1 the result was A: 6.383%; B: 2.089%; C: 9.98%.
For CCC(O)CN1CCN(C(=O)Cc2cc(C)ccc2OC)CC1 (stereo not given) the result was A: 1.688%; B: 6.417%; C: -15.14%.
For O=C(c1cnc2ccccc2c1)N1CCCC(O)(CN2CCCC2)C1 (stereo not given) the result was A: -2.667%; B: -3.818%; C: 4.518%.